The supplement of paper PMC3334620
Whole data set: some 33,000 sequences, median “E-score (-0.5 to 0.5)” near -0.015, cut for the highest 2% near 0.3. The list shows a part of the results.

target: T1, Abf1 (UniProt P14164); test: PBM E-score (8-mer binding enrichment) (E-score (-0.5 to 0.5)); higher = stronger / more preferred TF binding; conditions: protein concentration: 200 nM; construct: GST-full length
T1 sequence: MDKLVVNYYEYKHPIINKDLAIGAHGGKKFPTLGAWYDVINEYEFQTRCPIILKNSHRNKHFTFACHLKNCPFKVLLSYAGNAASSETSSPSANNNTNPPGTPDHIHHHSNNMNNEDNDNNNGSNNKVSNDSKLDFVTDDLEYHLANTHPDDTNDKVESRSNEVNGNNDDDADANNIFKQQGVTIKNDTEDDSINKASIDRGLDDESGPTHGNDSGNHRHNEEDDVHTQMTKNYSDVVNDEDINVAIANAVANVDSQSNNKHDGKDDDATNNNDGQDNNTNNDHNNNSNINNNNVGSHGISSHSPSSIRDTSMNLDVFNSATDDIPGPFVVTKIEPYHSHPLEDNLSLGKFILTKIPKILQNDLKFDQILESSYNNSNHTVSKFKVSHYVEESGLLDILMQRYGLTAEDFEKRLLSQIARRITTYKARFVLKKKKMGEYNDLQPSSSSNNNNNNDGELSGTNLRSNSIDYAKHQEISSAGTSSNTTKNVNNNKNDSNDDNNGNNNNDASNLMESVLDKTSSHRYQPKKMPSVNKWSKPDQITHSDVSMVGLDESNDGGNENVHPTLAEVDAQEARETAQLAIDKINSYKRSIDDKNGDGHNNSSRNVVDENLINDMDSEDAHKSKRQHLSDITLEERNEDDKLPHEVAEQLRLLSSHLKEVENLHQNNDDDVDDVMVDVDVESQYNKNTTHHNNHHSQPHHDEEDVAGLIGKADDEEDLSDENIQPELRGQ
In short: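 GST-tagged yeast TFs (full-length or DNA-binding domain) were made by PURExpress in vitro transcription/translation and applied at about 100-200 nM to universal all-10-mer Agilent arrays. The arrays were made double-stranded by primer extension, on fresh or once-stripped slides. Bound protein was detected with fluorescent anti-GST, and scans were normalised with masliner. Each ungapped eight-base word, pooled with its reverse complement, received an E-score (modified Wilcoxon-Mann-Whitney statistic) from the Universal PBM Analysis Suite.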

Sequence | PBM E-score
CACGTATG | 0.00529
CGGAATCA | 0.00134
CTCCCACA | -0.224
GCTTGTCA | 0.294
ACACGGGA | 0.19
CAATTTGG | 0.00722
AACCGACA | 0.162
CGTACCGC | 0.183
AATATACG | 0.189
CGTGTCGA | 0.0515
GCAATAAA | 0.139
AGCCTACC | -0.353
CAGGCAAC | -0.027
CATAACTC | -0.00554
TACTCCCA | 0.0371
CTGGTCAC | 0.0991
CAGGCTAC | 0.0501
CGCATATC | 0.239
GCCCCAGA | -0.182
CATGATCG | 0.0839
CCACACCC | -0.227
AAGTCTAC | -0.0157
CCGCACTC | -0.0386
ATAAATTC | 0.0233
AACAAGGT | -0.0738

Sequence | PBM E-score
AAGCATAT | 0.103
AACCTTCA | -0.176
CAAAGCCC | -0.177
AGGAGTTG | 0.106
ACGTGGAC | 0.148
CGGCTAGA | -0.191
ACCGGACA | -0.178
CCGAGAAG | -0.148
CCGACAAA | -0.0368
AGTTCACG | 0.205
CCTGGCGC | -0.203
CGCTTCGC | -0.0601
AAGTTCAC | -0.039
CAACTCCC | 0.0133
ATAGTGTC | 0.15
CGGTGAGC | 0.00518
CCTGTCTA | -0.143
AACCGAAC | -0.132
CCGCTCGA | -0.0978
CGCAAGTA | -0.0802
TGTTATAA | 0.114
GCGGAGAA | -0.133
AATGGACA | 0.139
ATTCACGG | 0.13
AGCTAGTG | -0.15

Retrieved one by one from the entries so far, four records:
Sequence | PBM E-score
CCTGTCTA | -0.143
AAGCATAT | 0.103
ATAGTGTC | 0.15
AATGGACA | 0.139

Remaining list, next part:

Sequence | PBM E-score
GTTAAGAA | 0.0526
CCTCGTGA | 0.363
CCCTGTAC | 0.00397
AACCCAAT | 0.0745
CAACCCAC | 0.039
ATTTCTTG | 0.167
ATCCATCC | 0.0564
ACAAGGTC | -0.0142
AAGTCCAT | 0.00815
GACGCAAC | -0.0321
CATCATGC | 0.128
AAGCGGAA | -0.123
GTAAGCCA | -0.0838
GCACTTCA | -0.0964
CCTCGAAC | -0.211
CTCTCGGA | 0.061
CATCACCG | 0.137
CGGATCTC | -0.0378
CATATAAA | 0.202
TCTGAAAA | -0.132
ATGCAAAA | 0.113
GAGCCACC | -0.254
CCCATCCG | -0.257
CATTATGC | 0.139
GGGACACA | -0.0891

Sequence | PBM E-score
CCCATATA | -0.0522
AGTGAAAC | -0.0253
GAGTTACA | 0.081
CATATGAC | 0.107
ATATTCTC | 0.169
CAGCCTTA | -0.0785
AAGTGGAA | -0.126
CAATAATA | 0.076
CCCAAACC | 0.088
AACGGTGC | 0.228
ACTGGGCC | -0.237
CGAACCTC | 0.137
AGCTGAAG | -0.229
AGCACCGC | -0.0172
ACCGCACC | -0.213
AACCATAA | -0.125
TAGAAGCA | -0.0239
AGGTGTTG | -0.111
TCATTCAA | 0.153
GTGTCGGA | 0.0611
GGAGTGAA | -0.0623
GTACGCAA | 0.115
GCAGTTTA | -0.0444
CTGAGGGA | 0.00291
AATCAAGG | 0.0183

Taken from above.
Value of AACAAGGT under PBM E-score: -0.0738
Value of ATGCAAAA under PBM E-score: 0.113

(next part)

Sequence | PBM E-score
CTAGCAGA | 0.108
CCCAAGTA | -0.16
CCCGGCAC | -0.0816
AGAGTCTA | -0.157
CGCACACG | 0.146
GGGACCTA | -0.0298
GTCAAGAA | 0.141
ATTGTGAC | 0.214
ATTTAAAA | 0.14
CACACGCC | 0.0223
CTAATTCC | 0.0379
AGGCGCAT | -0.0512
AGTCACGG | 0.154
CGCTTTGC | 0.056
GTCTTCTA | -0.12
CAAGCGCG | -0.138
AGAAAGGG | -0.181
GGCTAATA | 0.0305
ATCGAGAA | 0.154
AAGCAGTA | -0.245
CACCTAAA | -0.0302
CATGGTCA | 0.0681
GCGTAGCC | -0.176
ACAAGCTG | 0.00656
CGAGATCC | -0.0372

Sequence | PBM E-score
AGGAGGTG | -0.248
CTGGCCGA | -0.294
GTACTGAA | 0.0134
ACAATGGC | -0.0674
CGGATCCC | -0.126
AGACTTGC | -0.0934
CTGGCAGC | -0.226
AGCATTTA | -0.143
ACGCGTCC | -0.0434
GACCCGAA | -0.362
CCTAAGGC | -0.171
GATAGGCC | -0.00902
GATTACCC | 0.146
CAAAATCG | 0.188
ACGTCCCG | 0.0929
ACCGCCAT | -0.126
CTTCGCCA | -0.0613
AAGCCCAC | -0.0363
GCGAGACA | 0.00223
CAATCATC | 0.12
AGTTCTGG | -0.15
CAATCATG | 0.0428
ACCATGCA | 0.148
GATTCGCA | -0.00486
CTTTACAC | 0.17

Reformatted as labelled records: entries from further up.
GATTACCC
  PBM E-score = 0.146
CAAAATCG
  PBM E-score = 0.188

(cont.)

Sequence | PBM E-score
GCTGGCCC | -0.342
AAGCGTCC | -0.114
CAGCAGAG | -0.263
AGATATGC | 0.123
ACTTGTGC | -0.0722
CAAAGAGA | -0.0578
AAAAGTCA | 0.186
CGCTAAAG | -0.0174
AAGGTACA | -0.111
AAATCCTC | -0.238
ATAACTCC | 0.112
TCGTTGAA | 0.289
CTAGGTAC | 0.134
ACCGAGCT | -0.198
GGATGCCC | -0.0335
CATATACA | 0.0274
ATATTCCA | 0.16
CATCCCAG | -0.00556
ATGGTCAA | 0.203
CATAGTGA | 0.202
CGCAGACA | -0.104
CTATTTTC | 0.0169
